Two substances from article PMC5430744 (Scientific Reports, 2017) can be followed below.

Sequences of proteins named here, by UniProt entry; tags and fusion partners are left off. A change or cut given only in a name is not applied to a line headed by its entry.
UniProt D1AWD9: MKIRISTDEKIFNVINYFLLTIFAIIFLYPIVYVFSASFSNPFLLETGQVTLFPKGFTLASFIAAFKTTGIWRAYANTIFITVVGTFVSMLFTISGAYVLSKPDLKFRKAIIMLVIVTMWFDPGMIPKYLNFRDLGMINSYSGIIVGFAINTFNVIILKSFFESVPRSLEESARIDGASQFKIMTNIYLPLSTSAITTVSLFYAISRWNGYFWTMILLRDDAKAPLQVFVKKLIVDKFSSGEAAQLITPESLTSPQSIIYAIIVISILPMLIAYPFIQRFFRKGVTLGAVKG
UniProt D1AWD8: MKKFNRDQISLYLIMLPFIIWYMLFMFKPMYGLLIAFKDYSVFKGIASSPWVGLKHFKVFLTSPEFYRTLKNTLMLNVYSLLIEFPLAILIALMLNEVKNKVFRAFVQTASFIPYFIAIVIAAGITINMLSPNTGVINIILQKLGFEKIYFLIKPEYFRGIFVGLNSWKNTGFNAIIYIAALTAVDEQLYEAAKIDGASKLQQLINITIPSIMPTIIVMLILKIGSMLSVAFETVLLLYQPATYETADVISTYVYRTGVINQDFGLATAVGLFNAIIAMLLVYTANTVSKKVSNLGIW
UniProt D1AWD7: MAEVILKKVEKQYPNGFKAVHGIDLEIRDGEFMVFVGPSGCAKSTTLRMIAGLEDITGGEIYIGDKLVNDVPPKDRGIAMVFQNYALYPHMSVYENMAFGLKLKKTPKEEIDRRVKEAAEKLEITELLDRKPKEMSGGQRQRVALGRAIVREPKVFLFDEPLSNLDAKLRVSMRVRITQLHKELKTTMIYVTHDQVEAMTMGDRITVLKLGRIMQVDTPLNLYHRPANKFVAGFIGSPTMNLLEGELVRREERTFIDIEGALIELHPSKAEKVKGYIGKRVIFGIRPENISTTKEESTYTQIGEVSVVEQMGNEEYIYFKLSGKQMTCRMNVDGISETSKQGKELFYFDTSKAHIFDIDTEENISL

These are yes or no findings as the source states them, for the method shown. In cells and extracts the contact can be indirect. Binding can be weak; no strength is given.

For the assay, the target named is Smon0122(10xHis), putative aldouronate transport system (permease protein) (Streptobacillus moniliformis) (UniProt D1AWD9). The assay is described as follows: co-purification on Ni-NTA + SEC; operon smon0120-0121-0122 co-expressed in E. coli; membranes solubilised with DDM; Ni-NTA by the 10xHis on Smon0122, then HiLoad 16/60 Superdex 200 pg; three bands on SDS-PAGE; eluted as a tetramer (theoretical about 150 kDa, eluted slightly over 158 kDa, detergent present).

With “Smon0121, putative aldouronate transport system (permease protein) (from UniProt D1AWD8)”, the binding entry is listed as “binds”.
Turning to “Smon0120, multiple sugar transport system (ATP-binding protein) (from UniProt D1AWD7)”, the binding entry is on record as “binds”.
